Measurements from the supplement of paper PMC10849652.
The list shows a part of the results.

Protein sequences, listed by entry. Tags and fused reporters are not part of them. Lines headed by an entry give the natural chain unless they say otherwise; changes in a name come on top.
UniProt Q96A73: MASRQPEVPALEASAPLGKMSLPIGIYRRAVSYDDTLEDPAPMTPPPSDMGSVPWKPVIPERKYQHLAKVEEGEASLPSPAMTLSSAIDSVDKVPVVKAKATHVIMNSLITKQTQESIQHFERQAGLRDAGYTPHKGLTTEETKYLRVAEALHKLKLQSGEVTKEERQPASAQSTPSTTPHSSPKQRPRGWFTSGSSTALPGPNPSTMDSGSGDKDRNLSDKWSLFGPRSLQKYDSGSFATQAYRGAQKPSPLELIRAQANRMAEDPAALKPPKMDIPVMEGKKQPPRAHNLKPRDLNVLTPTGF
UniProt Q16719: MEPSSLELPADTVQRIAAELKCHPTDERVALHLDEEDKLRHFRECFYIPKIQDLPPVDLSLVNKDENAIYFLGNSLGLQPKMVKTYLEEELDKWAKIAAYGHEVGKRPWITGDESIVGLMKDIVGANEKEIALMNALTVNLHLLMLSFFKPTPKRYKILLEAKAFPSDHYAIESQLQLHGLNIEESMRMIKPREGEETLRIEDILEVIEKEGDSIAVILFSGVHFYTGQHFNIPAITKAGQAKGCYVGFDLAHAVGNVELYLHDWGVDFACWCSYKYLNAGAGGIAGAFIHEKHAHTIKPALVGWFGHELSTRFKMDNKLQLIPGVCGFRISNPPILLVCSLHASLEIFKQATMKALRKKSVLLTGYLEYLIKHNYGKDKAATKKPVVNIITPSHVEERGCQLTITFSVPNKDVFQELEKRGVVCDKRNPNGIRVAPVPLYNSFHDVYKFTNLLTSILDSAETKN
UniProt Q9UHA4, whole entry, looked up: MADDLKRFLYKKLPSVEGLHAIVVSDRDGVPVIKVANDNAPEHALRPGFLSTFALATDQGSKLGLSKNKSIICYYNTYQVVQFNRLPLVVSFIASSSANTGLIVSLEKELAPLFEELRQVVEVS
UniProt O00629, whole entry, looked up: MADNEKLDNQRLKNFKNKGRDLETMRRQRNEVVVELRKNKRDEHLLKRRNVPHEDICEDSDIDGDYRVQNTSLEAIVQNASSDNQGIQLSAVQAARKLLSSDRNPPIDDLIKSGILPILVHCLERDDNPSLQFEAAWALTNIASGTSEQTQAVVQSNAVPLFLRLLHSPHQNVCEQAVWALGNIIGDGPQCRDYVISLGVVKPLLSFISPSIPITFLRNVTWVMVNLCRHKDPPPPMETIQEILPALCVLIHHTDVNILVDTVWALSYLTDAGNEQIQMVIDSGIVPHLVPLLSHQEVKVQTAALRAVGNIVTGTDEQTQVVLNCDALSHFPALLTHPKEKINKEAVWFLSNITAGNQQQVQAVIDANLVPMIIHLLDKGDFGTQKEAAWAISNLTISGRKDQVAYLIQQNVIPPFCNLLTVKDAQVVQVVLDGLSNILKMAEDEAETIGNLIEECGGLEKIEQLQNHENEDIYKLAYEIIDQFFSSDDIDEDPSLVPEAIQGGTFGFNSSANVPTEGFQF
UniProt Q2VIQ3: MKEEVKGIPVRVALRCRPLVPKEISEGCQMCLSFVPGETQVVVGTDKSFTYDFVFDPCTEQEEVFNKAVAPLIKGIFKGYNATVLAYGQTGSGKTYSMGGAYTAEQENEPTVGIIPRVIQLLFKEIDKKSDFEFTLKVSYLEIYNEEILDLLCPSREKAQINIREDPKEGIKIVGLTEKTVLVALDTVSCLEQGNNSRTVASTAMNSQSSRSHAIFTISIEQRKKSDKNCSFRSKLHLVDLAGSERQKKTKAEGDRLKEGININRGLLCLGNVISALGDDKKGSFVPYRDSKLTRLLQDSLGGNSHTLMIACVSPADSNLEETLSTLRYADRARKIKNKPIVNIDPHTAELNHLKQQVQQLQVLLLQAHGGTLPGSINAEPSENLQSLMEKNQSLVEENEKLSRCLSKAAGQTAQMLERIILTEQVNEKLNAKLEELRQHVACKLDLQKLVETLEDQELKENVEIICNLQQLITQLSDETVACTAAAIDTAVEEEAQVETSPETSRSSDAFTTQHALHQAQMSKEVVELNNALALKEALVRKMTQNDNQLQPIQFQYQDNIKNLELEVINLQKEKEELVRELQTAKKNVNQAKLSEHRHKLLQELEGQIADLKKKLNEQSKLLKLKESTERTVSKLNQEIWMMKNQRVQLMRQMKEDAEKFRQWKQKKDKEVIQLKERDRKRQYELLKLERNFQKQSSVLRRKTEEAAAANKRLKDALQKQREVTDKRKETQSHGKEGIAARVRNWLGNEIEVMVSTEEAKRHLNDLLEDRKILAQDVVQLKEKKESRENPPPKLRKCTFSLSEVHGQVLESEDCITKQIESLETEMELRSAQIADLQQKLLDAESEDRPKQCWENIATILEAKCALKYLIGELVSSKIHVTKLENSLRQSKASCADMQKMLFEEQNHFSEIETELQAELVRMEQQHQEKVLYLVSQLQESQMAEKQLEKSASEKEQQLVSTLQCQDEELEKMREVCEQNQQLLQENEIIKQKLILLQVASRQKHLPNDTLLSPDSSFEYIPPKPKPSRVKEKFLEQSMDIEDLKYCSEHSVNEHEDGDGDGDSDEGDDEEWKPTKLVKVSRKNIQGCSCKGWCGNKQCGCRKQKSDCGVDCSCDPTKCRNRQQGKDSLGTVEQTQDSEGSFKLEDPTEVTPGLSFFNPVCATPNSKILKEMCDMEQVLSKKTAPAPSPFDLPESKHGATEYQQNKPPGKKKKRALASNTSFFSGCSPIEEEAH
UniProt Q9H9P8: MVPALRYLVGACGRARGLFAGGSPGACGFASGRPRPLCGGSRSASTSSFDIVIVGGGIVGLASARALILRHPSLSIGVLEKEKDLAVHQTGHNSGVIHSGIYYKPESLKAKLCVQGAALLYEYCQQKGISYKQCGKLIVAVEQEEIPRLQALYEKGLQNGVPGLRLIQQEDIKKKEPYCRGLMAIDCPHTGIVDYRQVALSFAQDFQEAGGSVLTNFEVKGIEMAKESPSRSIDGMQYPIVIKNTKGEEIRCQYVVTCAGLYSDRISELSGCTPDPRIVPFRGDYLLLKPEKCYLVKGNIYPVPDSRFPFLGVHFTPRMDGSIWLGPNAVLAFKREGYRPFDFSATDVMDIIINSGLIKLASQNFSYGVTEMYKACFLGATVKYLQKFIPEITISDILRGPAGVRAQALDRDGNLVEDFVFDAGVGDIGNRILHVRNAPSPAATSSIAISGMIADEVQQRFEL
UniProt P24043: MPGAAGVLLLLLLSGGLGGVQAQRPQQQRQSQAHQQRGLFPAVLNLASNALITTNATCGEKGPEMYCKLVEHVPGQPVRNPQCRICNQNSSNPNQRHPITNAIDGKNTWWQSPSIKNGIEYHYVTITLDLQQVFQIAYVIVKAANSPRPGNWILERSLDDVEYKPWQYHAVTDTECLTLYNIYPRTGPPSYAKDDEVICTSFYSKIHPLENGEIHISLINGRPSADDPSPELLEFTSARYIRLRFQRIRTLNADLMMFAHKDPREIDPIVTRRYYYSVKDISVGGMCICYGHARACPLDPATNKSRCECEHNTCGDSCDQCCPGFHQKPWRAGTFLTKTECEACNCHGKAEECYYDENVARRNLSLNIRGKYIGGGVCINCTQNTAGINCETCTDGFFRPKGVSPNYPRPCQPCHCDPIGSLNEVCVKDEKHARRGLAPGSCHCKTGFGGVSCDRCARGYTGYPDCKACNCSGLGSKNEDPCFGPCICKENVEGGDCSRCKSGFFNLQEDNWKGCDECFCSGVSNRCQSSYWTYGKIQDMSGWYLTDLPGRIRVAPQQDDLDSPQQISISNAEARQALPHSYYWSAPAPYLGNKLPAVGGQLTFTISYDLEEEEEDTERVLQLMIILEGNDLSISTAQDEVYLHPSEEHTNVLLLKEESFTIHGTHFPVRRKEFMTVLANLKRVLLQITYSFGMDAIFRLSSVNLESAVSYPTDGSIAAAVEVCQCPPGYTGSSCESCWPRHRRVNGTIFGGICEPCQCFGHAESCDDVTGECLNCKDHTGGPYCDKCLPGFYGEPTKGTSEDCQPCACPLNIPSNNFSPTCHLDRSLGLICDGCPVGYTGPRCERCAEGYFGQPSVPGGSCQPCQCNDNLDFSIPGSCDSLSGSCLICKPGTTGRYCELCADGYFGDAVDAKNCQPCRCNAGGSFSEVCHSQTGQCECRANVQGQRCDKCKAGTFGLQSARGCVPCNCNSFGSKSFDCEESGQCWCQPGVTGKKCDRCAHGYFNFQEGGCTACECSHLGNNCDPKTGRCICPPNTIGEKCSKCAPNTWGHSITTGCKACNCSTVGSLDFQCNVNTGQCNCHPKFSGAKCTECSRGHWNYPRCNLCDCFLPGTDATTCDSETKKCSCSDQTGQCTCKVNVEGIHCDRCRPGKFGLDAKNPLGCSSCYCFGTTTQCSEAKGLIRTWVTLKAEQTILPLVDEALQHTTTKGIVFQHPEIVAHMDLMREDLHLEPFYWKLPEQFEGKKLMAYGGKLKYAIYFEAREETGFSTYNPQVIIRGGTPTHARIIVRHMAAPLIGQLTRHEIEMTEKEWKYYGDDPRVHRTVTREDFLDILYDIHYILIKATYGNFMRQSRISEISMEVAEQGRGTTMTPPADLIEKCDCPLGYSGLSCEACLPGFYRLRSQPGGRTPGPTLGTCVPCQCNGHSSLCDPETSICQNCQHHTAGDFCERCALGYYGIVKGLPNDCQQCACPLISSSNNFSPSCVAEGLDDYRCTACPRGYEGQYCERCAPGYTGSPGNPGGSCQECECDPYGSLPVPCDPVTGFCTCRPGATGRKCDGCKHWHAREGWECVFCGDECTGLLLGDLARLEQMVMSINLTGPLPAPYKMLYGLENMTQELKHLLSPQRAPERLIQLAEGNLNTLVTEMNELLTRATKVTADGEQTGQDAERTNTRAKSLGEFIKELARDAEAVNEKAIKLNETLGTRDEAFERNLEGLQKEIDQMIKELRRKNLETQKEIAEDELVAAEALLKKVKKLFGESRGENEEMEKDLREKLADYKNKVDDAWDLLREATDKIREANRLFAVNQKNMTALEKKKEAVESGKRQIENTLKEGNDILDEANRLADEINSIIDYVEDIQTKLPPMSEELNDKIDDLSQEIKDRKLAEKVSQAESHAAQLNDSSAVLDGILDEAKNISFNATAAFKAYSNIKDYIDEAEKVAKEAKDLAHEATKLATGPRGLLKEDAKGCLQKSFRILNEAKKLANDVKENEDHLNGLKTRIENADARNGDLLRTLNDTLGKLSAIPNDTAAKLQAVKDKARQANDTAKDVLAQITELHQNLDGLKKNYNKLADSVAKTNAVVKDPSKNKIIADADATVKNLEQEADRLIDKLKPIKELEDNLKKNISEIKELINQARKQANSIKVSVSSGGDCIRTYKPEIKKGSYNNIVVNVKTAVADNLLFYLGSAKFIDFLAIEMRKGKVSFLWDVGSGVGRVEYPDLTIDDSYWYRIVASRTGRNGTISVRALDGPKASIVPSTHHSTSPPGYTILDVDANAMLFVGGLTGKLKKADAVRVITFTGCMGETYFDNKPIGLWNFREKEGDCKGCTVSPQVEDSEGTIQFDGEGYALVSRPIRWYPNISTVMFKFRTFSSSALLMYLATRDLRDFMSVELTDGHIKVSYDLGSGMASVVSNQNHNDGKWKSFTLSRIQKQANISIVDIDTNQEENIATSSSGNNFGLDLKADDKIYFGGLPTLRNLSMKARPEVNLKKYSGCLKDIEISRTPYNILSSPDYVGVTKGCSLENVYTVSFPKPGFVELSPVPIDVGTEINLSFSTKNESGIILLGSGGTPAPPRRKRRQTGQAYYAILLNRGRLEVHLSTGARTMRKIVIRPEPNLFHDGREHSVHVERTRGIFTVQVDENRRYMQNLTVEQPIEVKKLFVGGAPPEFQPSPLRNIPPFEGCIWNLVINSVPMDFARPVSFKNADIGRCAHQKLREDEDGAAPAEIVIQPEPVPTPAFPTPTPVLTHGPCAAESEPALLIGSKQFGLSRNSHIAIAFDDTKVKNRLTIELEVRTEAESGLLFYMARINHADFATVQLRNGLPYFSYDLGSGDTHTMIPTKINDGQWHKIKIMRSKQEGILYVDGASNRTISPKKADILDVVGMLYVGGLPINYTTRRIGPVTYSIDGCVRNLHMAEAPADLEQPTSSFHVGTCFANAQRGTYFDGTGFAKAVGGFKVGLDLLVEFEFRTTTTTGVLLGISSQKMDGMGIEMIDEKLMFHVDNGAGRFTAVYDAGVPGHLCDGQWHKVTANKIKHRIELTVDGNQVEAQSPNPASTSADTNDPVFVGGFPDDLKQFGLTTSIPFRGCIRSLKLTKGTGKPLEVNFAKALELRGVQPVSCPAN
UniProt Q96EK9: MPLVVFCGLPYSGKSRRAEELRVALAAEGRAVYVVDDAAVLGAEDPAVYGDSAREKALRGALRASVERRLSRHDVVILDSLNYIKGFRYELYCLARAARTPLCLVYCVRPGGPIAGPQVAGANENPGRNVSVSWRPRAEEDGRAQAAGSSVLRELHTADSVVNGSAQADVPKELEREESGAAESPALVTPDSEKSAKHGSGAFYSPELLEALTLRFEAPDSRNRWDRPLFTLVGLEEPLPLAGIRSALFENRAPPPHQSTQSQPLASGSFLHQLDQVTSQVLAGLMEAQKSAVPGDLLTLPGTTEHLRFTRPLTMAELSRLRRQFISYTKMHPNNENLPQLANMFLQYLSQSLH

How the values were obtained:
Experiment in all cases: log2 fold change, soluble protein after heating vs DMSO (PISA); higher = thermal stabilisation; K562 lysate, 10 uM; active = over 0.2 and 3.5 SD of the protein, either way, in both replicates (recomputed)
[1] = compound: CCCS(=O)(=O)Nc1ccc(F)c(C(=O)c2c[nH]c3ncc(-c4ccc(Cl)cc4)cc23)c1F [vemurafenib]
Procedure, shortened: (§1)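 Values give the log-two fold change in thermal stability against solvent controls, from duplicates. Crude K562 extract at 1 mg/mL protein, made by dounce homogenisation in PBS pH 7.4 with 1 mM MgCl2, was treated with 10 μM compound for 30 min. After 3 min heating across 48°C-58°C, aliquots were pooled, adjusted to 0.5% NP-40 at 4°C and centrifuged at 21,000xg for 90 min. The supernatant was measured by TMTpro 16plex LC-MS/MS with channel sums equalised.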

[2] = compound: CCCS(=O)(=O)Nc1ccc(F)c(C(=O)c2c[nH]c3ncc(Cl)cc23)c1F
Procedure, shortened: as §1

[3] = compound: CCN(CCCOc1ccc2c(Nc3cc(CC(=O)Nc4cccc(F)c4)[nH]n3)ncnc2c1)CCOP(=O)(O)O [barasertib]
Procedure, shortened: as §1

[4] = compound: CC[C@@H]1C(=O)N(C)c2cnc(Nc3ccc(C(=O)NC4CCN(C)CC4)cc3OC)nc2N1C1CCCC1
Procedure, shortened: as §1

[5] = compound: CC[C@@H]1C(=O)N(C)c2cnc(Nc3ccc(C(=O)N[C@H]4CC[C@H](N5CCN(CC6CC6)CC5)CC4)cc3OC)nc2N1C(C)C [volasertib]
Procedure, shortened: as §1

[6] = compound: CCn1c(C(=O)N(C2CC2)C2CC2)cc2c3c(ncn3C)c(Nc3cc(C)n(C)n3)nc21
Procedure, shortened: as §1

[7] = compound: CCn1cc(-c2ccnc3[nH]c(-c4cccc(CN(C)C)c4)cc23)c(-c2ccc(NC(=O)N(C)C)cc2)n1
Procedure, shortened: as §1

[8] = compound: CN1CCC(CNc2ccc3ncc(-c4cccc(OC(F)(F)F)c4)n3n2)CC1
Procedure, shortened: as §1

[9] = compound: CN1CCN(CCOc2cc(OC3CCOCC3)c3c(Nc4c(Cl)ccc5c4OCO5)ncnc3c2)CC1 [saracatinib]
Procedure, shortened: as §1

[10] = compound: CN1CCN(c2nc(C3=C(c4c[nH]c5ccccc45)C(=O)NC3=O)c3ccccc3n2)CC1 [sotrastaurin]
Procedure, shortened: as §1

Measured: log2 fold change

LARP4B (UniProt Q92615)
inactive: [1] -0.014 | [2] 0.011 | [3] -0.033 | [4] -0.029 | [5] -0.042 | [6] 0.08 | [7] -0.116 | [8] 0.038 | [9] 0.011 | [10] -0.019

KIAA1191 (UniProt Q96A73)
inactive: [1] 0.085 | [2] 0.03 | [3] 0.013 | [4] 0.136 | [5] 0.028 | [6] -0.007 | [7] 0.023 | [8] 0.007 | [9] 0.01 | [10] -0.062

KXD1 (UniProt Q9BQD3)
inactive: [1] -0.088 | [2] -0.065 | [3] 0.003 | [4] -0.008 | [5] -0.016 | [6] 0.041 | [7] 0.045 | [8] -0.004 | [9] 0.045 | [10] -0.025

KYNU (UniProt Q16719)
inactive: [1] 0.025 | [2] 0.037 | [3] -0.014 | [4] 0.014 | [5] 0.003 | [6] -0.105 | [7] 0.016 | [8] 0.038 | [9] 0.136 | [10] -0.009

KPNA3 (UniProt O00505)
inactive: [1] -0.011 | [2] -0.002 | [3] 0.043 | [4] -0.005 | [5] -0.023 | [6] -0.003 | [7] -0.087 | [8] 0.056 | [9] -0.003 | [10] -0.046

LAMTOR3 (UniProt Q9UHA4)
inactive: [1] 0.056 | [2] 0.007 | [3] 0.046 | [4] 0.049 | [5] 0.019 | [6] -0.015 | [7] -0.19 | [8] 0 | [9] 0.015 | [10] 0.006

KPNA4 (UniProt O00629)
inactive: [1] -0.003 | [2] 0.017 | [3] -0.089 | [4] 0.048 | [5] 0.026 | [6] -0.022 | [8] 0.103 | [9] -0.032 | [10] 0.03
active: [7] -0.318

KIF4B (UniProt Q2VIQ3)
inactive: [1] -0.026 | [2] 0.047 | [3] -0.015 | [4] -0.102 | [5] -0.003 | [6] 0.009 | [7] 0.007 | [8] -0.073 | [9] -0.002 | [10] -0.01

KSR1 (UniProt Q8IVT5)
inactive: [1] 0.021 | [2] 0.049 | [3] -0.022 | [4] -0.009 | [5] 0.016 | [6] 0.009 | [7] 0.187 | [8] -0.056 | [9] -0.003 | [10] -0.065

KIAA1324L (UniProt A8MWY0)
inactive: [1] 0.013 | [2] 0.009 | [3] 0 | [4] 0.086 | [5] 0.007 | [6] -0.059 | [7] 1.11 | [8] 0.065 | [9] -0.025 | [10] 0.063

L2HGDH (UniProt Q9H9P8)
inactive: [1] -0.043 | [2] 0.018 | [3] -0.003 | [4] -0.077 | [5] 0.004 | [6] -0.002 | [7] 0.004 | [8] -0.047 | [9] 0.006 | [10] 0.023

Two neighbouring records already listed, for reference:
KIAA1324L (UniProt A8MWY0)
inactive: [1] 0.013 | [2] 0.009 | [3] 0 | [4] 0.086 | [5] 0.007 | [6] -0.059 | [7] 1.11 | [8] 0.065 | [9] -0.025 | [10] 0.063

L2HGDH (UniProt Q9H9P8)
inactive: [1] -0.043 | [2] 0.018 | [3] -0.003 | [4] -0.077 | [5] 0.004 | [6] -0.002 | [7] 0.004 | [8] -0.047 | [9] 0.006 | [10] 0.023

(listing goes on)

LAMA2 (UniProt P24043)
inactive: [1] 0.089 | [2] -0.068 | [3] 0.039 | [4] 0.124 | [5] 0.021 | [6] -0.102 | [7] -0.284 | [8] 0.148

KLHDC4 (UniProt Q8TBB5)
inactive: [1] 0.069 | [2] -0.007 | [3] -0.055 | [4] -0.01 | [5] 0.014 | [6] -0.007 | [7] 0 | [8] -0.039 | [9] 0.017 | [10] 0.016

KTI12 (UniProt Q96EK9)
inactive: [1] 0.109 | [2] 0.017 | [3] -0.003 | [4] 0.059 | [5] -0.091 | [6] -0.022 | [7] -0.02 | [8] -0.017 | [9] -0.056 | [10] 0.039

KHDC4 (UniProt Q7Z7F0)
inactive: [1] 0.026 | [2] 0.051 | [3] -0.019 | [4] 0.064 | [5] 0.022 | [6] -0.02 | [7] 0.055 | [8] 0.053 | [9] 0.043 | [10] -0.083
